The test deals with BDF1 mice, s.c. Lewis lung carcinoma, T/C %. Kind of test: NCI In Vivo Anticancer Drug Screen. Data for tumor model Lewis Lung Carcinoma (subcutaneous) in B6D2F1 (BDF1) mice. A digest of the protocol: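 Antitumor effect in vivo is scored from survival or tumor burden, reported as treated relative to vehicle controls.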
Where [1] appears, read: T/C endpoint: median survival time, dose: 200.0 mg/kg/injection, schedule: Q01DX009 (ip), vehicle: Klucel (hydroxypropylcellulose) (HPC), higher T/C = longer survival.

The list is a part of this screen's results and no random one: it gathers tests that were run many times, whatever their T/C, doses with no T/C, and many T/C values between a quarter and a half above the control. Other doses and runs of a compound stand elsewhere. T/C gives the treated animals as a percentage of the vehicle group. Schedules are NCI's codes, read here as Q, the interval in days (D) or hours (H), X, the number of doses. Some entries give survivors of the animals treated and no T/C: the source files T/C as zero there, which appears to mark a toxic dose or a test without result, not a measured value. Some survivor counts are full or nearly so, which does not show that the dose was tolerated: the source hardly ever lists a survival T/C far under the control, and the zero likely stands for such cases as well. Survivors were counted at the toxicity check, usually on the fifth day, unless a day is given; later deaths do not show. For survival time, the PubChem record calls one and a half times the control and up active, and a quarter to a half above the control has no call in these data; cut-offs in other NCI protocols can differ. *1 amine or outer side, *2 acyl side, *3 side chain or, on linkers, in order; H or OH if unused. Where a SMILES comes first, the peptide text is derived from it. Bridges are numbered along the chain shown (N, C = ends). Roman numbers before positions name the chains, in order. [ ]: non-standard residue; d: D form. Actinocin(1to9) = Cc1c2oc3c(C)ccc(C(=O)[*:2])c3nc-2c(C(=O)[*:1])c(N)c1=O; NMeV = CN[CH](C(=O)O)C(C)C; Sar = CNCC(=O)O

In the case of `O=C(O)C1CCCCN1` (stereo not drawn), the T/C (T/C endpoint: mean tumor weight, dose: 200.0 mg/kg/injection, schedule: Q01DX011 (ip), vehicle: other, evaluated on day 12, higher T/C = larger tumour) was 129 % of control.
As to `CNNCc1ccc(C(=O)NC(C)C)cc1`, the survivor count is, setting by setting: (T/C endpoint: median survival time, dose: 100.0 mg/kg/injection, schedule: Q08HX024 (ip), vehicle: saline, higher T/C = longer survival) 9 of 10; (T/C endpoint: median survival time, dose: 200.0 mg/kg/injection, schedule: Q08HX024 (ip), vehicle: saline, higher T/C = longer survival) 9 of 10.
For the compound `Nc1ccccc1Br`, for the setting “T/C endpoint: mean tumor weight, dose: 148.0 mg/kg/injection, schedule: Q01DX011 (ip), vehicle: other, evaluated on day 12, higher T/C = larger tumour”, the T/C was 143 % of control. Besides, the survivor count (T/C endpoint: mean tumor weight, dose: 500.0 mg/kg/injection, schedule: Q01DX011 (ip), vehicle: other, higher T/C = larger tumour) was 3 of 6.
With `CCN(CC)C(=S)S.[Te]`, the survivor count (T/C endpoint: mean tumor weight, dose: 400.0 mg/kg/injection, schedule: Q01DX011 (ip), vehicle: carboxymethylcellulose (CMC), higher T/C = larger tumour) is listed as 0 of 6.
As to `COc1ccc(CN2CCCN(Cc3ccc(OC)cc3)C2c2ccc(Cl)cc2Cl)cc1`, the T/C (T/C endpoint: mean tumor weight, dose: 111.0 mg/kg/injection, schedule: Q01DX011 (ip), vehicle: other, evaluated on day 12, higher T/C = larger tumour) is 140 % of control. In addition, under “T/C endpoint: mean tumor weight, dose: 250.0 mg/kg/injection, schedule: Q01DX011 (ip), vehicle: other, higher T/C = larger tumour”, the survivor count is given as 0 of 6.
As to `NC(=O)c1nn(C2OC(CO)C(O)C2O)c2ncnc(N)c12` (stereo not drawn), the survivor count runs as follows: (T/C endpoint: median survival time, dose: 25.0 mg/kg/injection, schedule: Q01DX009 (ip), vehicle: Klucel (hydroxypropylcellulose) (HPC), higher T/C = longer survival) 10 of 10; (T/C endpoint: median survival time, dose: 50.0 mg/kg/injection, schedule: Q01DX009 (ip), vehicle: Klucel (hydroxypropylcellulose) (HPC), higher T/C = longer survival) 5 of 10; (T/C endpoint: median survival time, dose: 100.0 mg/kg/injection, schedule: Q01DX009 (ip), vehicle: Klucel (hydroxypropylcellulose) (HPC), higher T/C = longer survival) 0 of 10; under setting [1], 0 of 10.
Turning to `CCC(C)C1NC(=O)C(NC(=O)c2c3nc4c(C(=O)NC5C(=O)NC(C(C)CC)C(=O)N6CCCC6C(=O)N(C)CC(=O)N(C)C(C(C)C)C(=O)OC5C)ccc(C)c4oc-3c(C)c(=O)c2N)C(C)OC(=O)C(C(C)C)N(C)C(=O)CN(C)C(=O)C2CCCN2C1=O` (stereo not drawn) (I: TIP[Sar][NMeV] / II: TIP[Sar][NMeV]; ester I:1-I:C, II:1-II:C; linker I:N-II:N via Actinocin(1to9); configuration not given here), the T/C (T/C endpoint: median survival time, dose: 100.0 micrograms/kg/injection, schedule: Q01DX009 (ip), vehicle: water, higher T/C = longer survival) is 130 % of control. Moreover, the survivor count is reported as 10 of 10 (T/C endpoint: median survival time, dose: 200.0 micrograms/kg/injection, schedule: Q01DX009 (ip), vehicle: water, higher T/C = longer survival); 9 of 10 (T/C endpoint: median survival time, dose: 600.0 micrograms/kg/injection, schedule: Q04DX003 (ip), vehicle: water, higher T/C = longer survival); 10 of 10 (T/C endpoint: median survival time, dose: 1200.0 micrograms/kg/injection, schedule: Q04DX003 (ip), vehicle: water, higher T/C = longer survival).
Turning to `CC(=O)O[C@H]1C(=O)[C@@]2(C)[C@H]([C@H](OC(=O)c3ccccc3)[C@]3(O)C[C@H](OC(=O)[C@H](O)[C@@H](NC(=O)c4ccccc4)c4ccccc4)C(C)=C1C3(C)C)[C@]1(OC(C)=O)CO[C@@H]1C[C@@H]2O`, the survivor count reads like this: (T/C endpoint: median survival time, dose: 9.0 mg/kg/injection, schedule: Q01DX009 (ip), vehicle: Klucel (hydroxypropylcellulose) (HPC), higher T/C = longer survival) 10 of 10; (T/C endpoint: median survival time, dose: 24.0 mg/kg/injection, schedule: Q04DX003 (ip), vehicle: Klucel (hydroxypropylcellulose) (HPC), higher T/C = longer survival) 10 of 10.
For `OC(CBr)C(O)C(O)C(O)CBr` (stereo not drawn), the survivor count runs as follows: (T/C endpoint: mean tumor weight (est.), dose: 600.0 mg/kg/injection, schedule: Q01DX009 (ip), vehicle: Klucel (hydroxypropylcellulose) (HPC), higher T/C = larger tumour) 3 of 8; (T/C endpoint: median survival time, dose: 300.0 mg/kg/injection, schedule: Q01DX009 (ip), vehicle: Klucel (hydroxypropylcellulose) (HPC), higher T/C = longer survival) 6 of 8; (T/C endpoint: median survival time, dose: 600.0 mg/kg/injection, schedule: Q01DX009 (ip), vehicle: Klucel (hydroxypropylcellulose) (HPC), higher T/C = longer survival) 3 of 8; (T/C endpoint: median survival time, dose: 800.0 mg/kg/injection, schedule: Q01DX009 (ip), vehicle: saline, higher T/C = longer survival) 9 of 10. Moreover, the T/C runs as follows: (T/C endpoint: mean tumor weight, dose: 50.0 mg/kg/injection, schedule: Q01DX011 (ip), vehicle: saline, evaluated on day 12, higher T/C = larger tumour) 143 % of control; (T/C endpoint: median survival time, dose: 75.0 mg/kg/injection, schedule: Q01DX009 (ip), vehicle: Klucel (hydroxypropylcellulose) (HPC), higher T/C = longer survival) 127 % of control.
Consider `CC(C)([NH-])CO.CC(C)([NH-])CO.[Cl][Cd][Cl]`, for which the survivor count was 2 of 6 (T/C endpoint: mean tumor weight, dose: 8.0 mg/kg/injection, schedule: Q01DX011 (ip), vehicle: saline, higher T/C = larger tumour); 0 of 6 (T/C endpoint: mean tumor weight, dose: 16.0 mg/kg/injection, schedule: Q01DX011 (ip), vehicle: saline, higher T/C = larger tumour); 0 of 6 (T/C endpoint: mean tumor weight, dose: 24.0 mg/kg/injection, schedule: Q01DX011 (ip), vehicle: saline, higher T/C = larger tumour); 0 of 6 (T/C endpoint: mean tumor weight, dose: 32.0 mg/kg/injection, schedule: Q01DX011 (ip), vehicle: saline, higher T/C = larger tumour).
`CCC(c1ccc(OC(=O)Cc2ccc(N(CCCl)CCCl)cc2)cc1)C(CC)c1ccc(OC(=O)Cc2ccc(N(CCCl)CCCl)cc2)cc1` (stereo not drawn): the survivor count is 10 of 10 (T/C endpoint: median survival time, dose: 200.0 mg/kg/injection, schedule: Q02DX009 (ip), vehicle: saline with Tween-80, higher T/C = longer survival) and 10 of 10 (T/C endpoint: median survival time, dose: 400.0 mg/kg/injection, schedule: Q02DX009 (ip), vehicle: saline with Tween-80, higher T/C = longer survival).
As to `CC(C)n1c2c([n+](C)c1/C=C/c1ccccc1)C(=O)c1ccccc1C2=O`, the survivor count (T/C endpoint: median survival time, dose: 2.0 mg/kg/injection, schedule: Q01DX009 (ip), vehicle: saline, higher T/C = longer survival) is given as 0 of 10.
On to `COC1=C(N)C(=O)c2nc(-c3nc(C(=O)O)c(C)c(-c4ccc(OC)c(OC)c4O)c3N)ccc2C1=O`, for which the survivor count (T/C endpoint: median survival time, dose: 0.5 mg/kg/injection, schedule: Q01DX009 (ip), vehicle: saline, higher T/C = longer survival) is 10 of 10; the survivor count (T/C endpoint: median survival time, dose: 1.0 mg/kg/injection, schedule: Q01DX009 (ip), vehicle: saline, higher T/C = longer survival) is 10 of 10; the survivor count (T/C endpoint: median survival time, dose: 4.0 mg/kg/injection, schedule: Q01DX009 (ip), vehicle: saline, higher T/C = longer survival) is given as 0 of 10.
Consider `CO[C@H]1C[C@H](O[C@H]2CC[C@]3(C=O)[C@H]4CC[C@]5(C)[C@@H](C6=CC(=O)OC6)CC[C@]5(O)[C@@H]4CC[C@]3(O)C2)O[C@H](C)[C@H]1O`, for which the survivor count is, setting by setting: (T/C endpoint: mean tumor weight, dose: 6.0 mg/kg/injection, schedule: Q01DX011 (sc), vehicle: steroid suspending solution, higher T/C = larger tumour) 2 of 6; (T/C endpoint: mean tumor weight, dose: 9.0 mg/kg/injection, schedule: Q01DX011 (sc), vehicle: steroid suspending solution, higher T/C = larger tumour) 3 of 6.
With `O=NN(CCCl)C(=O)N[C@H]1CCCC[C@H]1Cl`, the T/C runs as follows: (T/C endpoint: median survival time, dose: 45.0 mg/kg/injection, schedule: Q01DX001 (ip), vehicle: Klucel (hydroxypropylcellulose) (HPC), higher T/C = longer survival) 132 % of control; (T/C endpoint: median survival time, dose: 90.0 mg/kg/injection, schedule: Q01DX001 (ip), vehicle: Klucel (hydroxypropylcellulose) (HPC), higher T/C = longer survival) 140 % of control; (T/C endpoint: median survival time, dose: 180.0 mg/kg/injection, schedule: Q01DX001 (ip), vehicle: Klucel (hydroxypropylcellulose) (HPC), higher T/C = longer survival) 140 % of control.
In the case of `C=C1C(=O)OC2CC(C)C3(O)CCC(C)(CC(OC(=O)C(C)C)C12)O3` (stereo not drawn), the survivor count under setting [1] was 9 of 10.
As to `CCCCn1cnc2c(SC)ncnc21`, the survivor count is given as 10 of 10 (T/C endpoint: median survival time, dose: 12.5 mg/kg/injection, schedule: Q01DX009 (ip), vehicle: saline with Tween-80, higher T/C = longer survival) and 0 of 10 (T/C endpoint: median survival time, dose: 200.0 mg/kg/injection, schedule: Q01DX009 (ip), vehicle: saline with Tween-80, higher T/C = longer survival).
On to `C[C@]12CCC(=O)C=C1CC[C@@H]1[C@@H]2[C@@H](O)C[C@@]2(C)[C@H]1CC[C@]2(O)C(=O)CO`, for which the survivor count (T/C endpoint: median survival time, dose: 320.0 mg/kg/injection, schedule: Q02DX009 (ip), vehicle: Klucel (hydroxypropylcellulose) (HPC), higher T/C = longer survival) is 9 of 10.

Values taken from PubChem BioAssay AID270 (DTP/NCI, 2004).
